This is one part of the list. Further columns of the screen follow, without active or inactive calls. The list favours compounds with an active or inconclusive main result. The note in brackets gives the kind of curve behind each potency; many fits are weak.
Experiment: qHTS Assay for Lipid Storage Modulators in Drosophila S3 Cells;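 as to cell number change: cells counted by Cell Tracker Red CMTPX staining in the red channel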
Settings: BODIPY lipid droplet fluorescence, 18-24 h; for cell number change: measured here: cell count max response, cells fed with added oleic acid
In short: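 Drosophila S3 cells loaded with oleic acid (400 uM, as added) and compounds at several concentrations; lipid droplets imaged by 488-nm laser-scanning cytometry, 500–530 nm intensity and object ratio to cell channel. Percent activity normalized to 20 uM Triacsin C.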

[1] = measured here: cell number channel AC50, cells fed with added oleic acid
[2] = measured here: lipid fluorescence (Fed channel) AC50, cells fed with added oleic acid

Row | Compound | cell number change [%] | AC50 [1] | AC50 [2]
1 | O=C(N/N=C/c1cccc([N+](=O)[O-])c1)c1cccc2cc[nH]c12 | 32.4 | 1.3 µM [rising, full curve, poor fit] | 0.82 µM [rising, full curve]
2 | O=C(Oc1ccc2ccc(=O)oc2c1)c1ccc([N+](=O)[O-])cc1 | -8.56 | – | 0.731 µM [rising, full curve]
3 | CC1(C)Cc2c(sc3nc(SCC(=O)O)nc(N)c23)CO1 | 33.4 | 0.82 µM [rising, full curve, poor fit] | 29.1 µM [rising, partial curve]
4 | Cc1ccc(-n2ncc3c(NCc4ccccn4)ncnc32)c(C)c1 | -35.3 | 29.1 µM [falling, single point] | 32.6 µM [falling, single point]
5 | COc1ccc(CCNc2c(N)n(Cc3ccccc3)c(=O)[nH]c2=O)cc1OC | 15.1 | 2.91 µM [rising, single point] | 5.8 µM [rising, single point]
6 | O=C(c1ccccc1)c1cc(F)c(N2CCOCC2)cc1Cl | 49.8 | 29.1 µM [rising, single point] | 6.51 µM [falling, partial curve, poor fit]
7 | CCOC(=O)CN1C(=O)C(=O)N(Cc2c(Cl)cccc2Cl)C1=O | -25.2 | 2.31 µM [falling, full curve, poor fit] | 2.91 µM [falling, partial curve, poor fit]
8 | OCCC1CN(Cc2nc3ccccc3[nH]2)CCN1C1CCCC1 (stereo not given) | 13.3 | – | 1.03 µM [falling, full curve]
9 | O=C(Nc1ccc2c(c1)OCCO2)c1ccc(Br)cc1 | 0.702 | – | 0.461 µM [falling, full curve]
10 | COC(=O)N1C(=O)[C@](c2ccsc2)(C(C)C)N1C(=O)OC | 12.6 | – | 0.58 µM [rising, single point]
11 | Cc1cc(Br)ccc1OCCN1CC(C)OC(C)C1 (stereo not given) | -12 | 3.66 µM [falling, single point] | 6.51 µM [falling, single point]
12 | COc1ccc(NC(=O)CS(=O)CC(=O)NC2CCCc3ccccc32)cc1 (stereo not given) | -11.9 | – | 29.1 µM [rising, single point]
13 | COc1ccc(-c2cc(C)no2)cc1S(=O)(=O)NCCCN(C)Cc1ccccc1 | 6.92 | – | 14.6 µM [rising, partial curve]
14 | O=C(Nc1ccc(CN2CCOCC2)cc1)c1cc(Br)ccc1Cl | 17.5 | – | 29.1 µM [rising, single point]
15 | CCCn1c(NC(=O)c2cccc(S(=O)(=O)N3CCCC3)c2)nc2ccccc21 | – | – | 25.9 µM [falling, single point]
16 | O=C(c1cccs1)N(Cc1nc2sc3c(c2c(=O)[nH]1)CCCC3)C1CCCC1 | -36.6 | 29.1 µM [falling, single point] | 16.4 µM [falling, partial curve]
17 | COc1ccccc1N1C(=O)N(CC(=O)C(C)(C)C)c2ccccc2S1(=O)=O | 10.6 | – | 11.6 µM [rising, single point]
18 | c1ccc(CCn2nnnc2C(c2cccnc2)N2CCN(c3ccccc3)CC2)cc1 (stereo not given) | 31.1 | 1.16 µM [rising, partial curve, poor fit] | 6.51 µM [rising, partial curve]
19 | O=C(CCn1c(=S)[nH]c2cc3c(cc2c1=O)OCO3)NCc1ccccc1Cl | -12.5 | – | –
20 | CCN(CC)S(=O)(=O)c1cc(NS(=O)(=O)c2cccc(C(=O)O)c2)ccc1C | 5.63 | – | –
21 | CC(C)OC(=O)C(C)Oc1ccc(C(=O)NCCc2ccccc2)cc1 (stereo not given) | 11.9 | – | –
22 | O=C(Nc1nnc(-c2ccco2)s1)C1CCN(S(=O)(=O)c2ccc(Cl)cc2)CC1 | -1.58 | – | –
23 | COC(=O)c1ccc(Oc2cc(C)nc(SC)n2)cc1 | -20.1 | – | –
24 | COc1cc(C(=O)NNC(=S)NC(=O)c2ccc3c(c2)OCO3)cc(OC)c1OC | 32.9 | – | 29.1 µM [rising, single point]
25 | CCCCC(CC)COC(=O)c1ccc(N(C)C)cc1 (stereo not given) | 22.1 | – | 9.2 µM [rising, partial curve, poor fit]
26 | O=C(NCc1cccnc1)C1CCCN(S(=O)(=O)c2ccc(Br)cc2)C1 (stereo not given) | 3.11 | – | 18.4 µM [rising, partial curve]
27 | O=C(Nc1ccc(Cl)cn1)C1CCCN1S(=O)(=O)c1ccccc1 (stereo not given) | -16.4 | – | 0.00461 µM [falling, full curve, poor fit]
28 | Cc1ccccc1NC(=O)NCC1CCCO1 (stereo not given) | 0.844 | – | 0.651 µM [rising, single point]
29 | CN(C)S(=O)(=O)c1ccc(C(=O)NCC(C)(C)CN=C2NS(=O)(=O)c3ccccc32)cc1 | 11.7 | – | –

Single records (already shown). Values in the order: cell number change [%] | AC50 [1] | AC50 [2]
Cc1ccccc1NC(=O)NCC1CCCO1 (stereo not given) is entered as 0.844 | – | 0.651 µM [rising, single point]
O=C(CCn1c(=S)[nH]c2cc3c(cc2c1=O)OCO3)NCc1ccccc1Cl is entered as -12.5 | – | –

Reference: PubChem BioAssay AID2685 (National Center for Advancing Translational Sciences (NCATS), 2010)
